# Measurements taken from ChEMBL document CHEMBL2218924, “A broad activity screen in support of a chemogenomic map for kinase signalling research and drug discovery” (Biochem J, 2013).
# Chains of the proteins cited; added tags and fusions are not shown. Lines headed by an entry give the natural chain unless they say otherwise; changes in a name come on top.
# UniProt P35968, whole entry: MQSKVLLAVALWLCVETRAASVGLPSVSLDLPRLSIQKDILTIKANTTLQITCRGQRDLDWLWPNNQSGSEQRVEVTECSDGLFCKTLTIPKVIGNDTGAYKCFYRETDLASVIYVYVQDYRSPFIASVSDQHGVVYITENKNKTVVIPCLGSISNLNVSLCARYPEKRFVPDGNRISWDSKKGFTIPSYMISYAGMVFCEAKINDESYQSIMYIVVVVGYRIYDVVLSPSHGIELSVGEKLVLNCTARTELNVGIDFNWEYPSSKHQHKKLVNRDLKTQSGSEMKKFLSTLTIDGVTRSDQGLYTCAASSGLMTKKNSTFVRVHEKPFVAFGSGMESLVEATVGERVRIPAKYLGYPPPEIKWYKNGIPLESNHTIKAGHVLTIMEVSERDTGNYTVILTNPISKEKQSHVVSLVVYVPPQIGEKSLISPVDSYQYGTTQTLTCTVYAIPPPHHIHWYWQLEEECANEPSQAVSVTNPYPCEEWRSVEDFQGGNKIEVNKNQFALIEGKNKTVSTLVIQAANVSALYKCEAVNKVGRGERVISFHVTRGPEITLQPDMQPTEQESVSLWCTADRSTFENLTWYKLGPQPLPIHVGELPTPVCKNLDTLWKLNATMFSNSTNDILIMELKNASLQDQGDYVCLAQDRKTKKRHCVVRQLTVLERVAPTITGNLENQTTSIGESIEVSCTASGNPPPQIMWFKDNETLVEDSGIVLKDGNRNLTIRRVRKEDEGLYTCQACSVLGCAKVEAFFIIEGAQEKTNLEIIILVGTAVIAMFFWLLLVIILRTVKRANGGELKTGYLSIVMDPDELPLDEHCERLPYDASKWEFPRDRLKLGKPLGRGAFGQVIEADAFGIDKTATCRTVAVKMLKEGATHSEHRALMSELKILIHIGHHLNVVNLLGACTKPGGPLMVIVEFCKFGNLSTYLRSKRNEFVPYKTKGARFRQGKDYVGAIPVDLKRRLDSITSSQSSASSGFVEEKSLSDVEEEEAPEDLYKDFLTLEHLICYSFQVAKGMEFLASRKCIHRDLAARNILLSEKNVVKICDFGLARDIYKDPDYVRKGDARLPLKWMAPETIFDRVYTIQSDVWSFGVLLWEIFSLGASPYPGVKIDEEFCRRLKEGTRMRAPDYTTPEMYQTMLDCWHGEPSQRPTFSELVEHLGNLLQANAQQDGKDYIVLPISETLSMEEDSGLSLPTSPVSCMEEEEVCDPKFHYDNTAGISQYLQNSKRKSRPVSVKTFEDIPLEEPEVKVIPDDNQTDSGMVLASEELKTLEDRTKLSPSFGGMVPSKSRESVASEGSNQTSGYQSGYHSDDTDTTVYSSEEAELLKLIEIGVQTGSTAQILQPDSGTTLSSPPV
# UniProt P53667: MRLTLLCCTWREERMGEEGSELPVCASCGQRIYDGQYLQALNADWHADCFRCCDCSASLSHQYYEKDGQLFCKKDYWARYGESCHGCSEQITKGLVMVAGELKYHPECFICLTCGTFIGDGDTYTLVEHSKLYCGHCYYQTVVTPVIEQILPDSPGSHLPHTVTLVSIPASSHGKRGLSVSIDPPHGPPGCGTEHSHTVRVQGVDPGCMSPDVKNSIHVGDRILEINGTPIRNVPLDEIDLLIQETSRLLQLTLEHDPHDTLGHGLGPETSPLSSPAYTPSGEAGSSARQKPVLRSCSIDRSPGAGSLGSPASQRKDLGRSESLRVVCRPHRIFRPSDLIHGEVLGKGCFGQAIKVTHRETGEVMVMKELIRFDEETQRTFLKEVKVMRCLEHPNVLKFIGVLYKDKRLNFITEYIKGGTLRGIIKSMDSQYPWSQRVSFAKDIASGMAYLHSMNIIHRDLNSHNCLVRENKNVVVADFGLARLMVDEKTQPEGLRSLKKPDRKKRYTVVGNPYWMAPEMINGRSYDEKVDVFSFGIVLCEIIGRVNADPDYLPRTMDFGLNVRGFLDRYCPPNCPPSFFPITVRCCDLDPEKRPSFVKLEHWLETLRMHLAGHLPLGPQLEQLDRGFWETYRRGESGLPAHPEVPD
# UniProt P06239: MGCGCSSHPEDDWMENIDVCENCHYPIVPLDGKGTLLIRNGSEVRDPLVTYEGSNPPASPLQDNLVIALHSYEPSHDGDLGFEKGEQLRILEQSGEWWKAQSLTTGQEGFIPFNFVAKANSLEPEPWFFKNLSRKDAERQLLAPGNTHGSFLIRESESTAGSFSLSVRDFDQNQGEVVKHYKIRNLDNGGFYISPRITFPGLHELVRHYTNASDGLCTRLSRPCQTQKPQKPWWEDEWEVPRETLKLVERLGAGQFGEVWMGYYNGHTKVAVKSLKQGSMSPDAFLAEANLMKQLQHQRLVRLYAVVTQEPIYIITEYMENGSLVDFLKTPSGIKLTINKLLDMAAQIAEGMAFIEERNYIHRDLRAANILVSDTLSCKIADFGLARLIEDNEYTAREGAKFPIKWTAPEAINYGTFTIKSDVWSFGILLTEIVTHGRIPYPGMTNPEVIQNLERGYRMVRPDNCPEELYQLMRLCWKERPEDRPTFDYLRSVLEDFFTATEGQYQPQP
# UniProt P49137, whole entry, looked up: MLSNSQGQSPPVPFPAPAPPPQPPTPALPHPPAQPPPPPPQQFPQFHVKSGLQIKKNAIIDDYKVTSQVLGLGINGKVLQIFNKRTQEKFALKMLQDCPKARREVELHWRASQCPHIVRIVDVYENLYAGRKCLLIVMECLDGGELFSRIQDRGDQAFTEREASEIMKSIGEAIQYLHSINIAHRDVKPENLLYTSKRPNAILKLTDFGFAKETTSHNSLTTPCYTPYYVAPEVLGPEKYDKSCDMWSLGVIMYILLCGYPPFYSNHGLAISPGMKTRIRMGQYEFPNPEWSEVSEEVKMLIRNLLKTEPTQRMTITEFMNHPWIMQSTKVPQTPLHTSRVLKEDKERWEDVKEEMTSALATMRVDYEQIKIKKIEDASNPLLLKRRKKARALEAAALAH
# UniProt Q16644, whole entry, looked up: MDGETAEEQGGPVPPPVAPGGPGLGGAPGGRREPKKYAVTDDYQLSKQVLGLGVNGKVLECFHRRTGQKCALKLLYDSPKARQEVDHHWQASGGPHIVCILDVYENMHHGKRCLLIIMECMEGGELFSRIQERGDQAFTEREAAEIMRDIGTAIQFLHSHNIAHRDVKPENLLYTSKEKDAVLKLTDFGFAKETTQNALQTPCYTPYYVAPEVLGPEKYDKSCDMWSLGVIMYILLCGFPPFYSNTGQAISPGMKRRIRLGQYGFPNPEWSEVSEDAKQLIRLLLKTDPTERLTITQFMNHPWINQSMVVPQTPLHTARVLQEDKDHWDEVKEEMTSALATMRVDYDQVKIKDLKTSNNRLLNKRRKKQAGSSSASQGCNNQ
# UniProt P52564: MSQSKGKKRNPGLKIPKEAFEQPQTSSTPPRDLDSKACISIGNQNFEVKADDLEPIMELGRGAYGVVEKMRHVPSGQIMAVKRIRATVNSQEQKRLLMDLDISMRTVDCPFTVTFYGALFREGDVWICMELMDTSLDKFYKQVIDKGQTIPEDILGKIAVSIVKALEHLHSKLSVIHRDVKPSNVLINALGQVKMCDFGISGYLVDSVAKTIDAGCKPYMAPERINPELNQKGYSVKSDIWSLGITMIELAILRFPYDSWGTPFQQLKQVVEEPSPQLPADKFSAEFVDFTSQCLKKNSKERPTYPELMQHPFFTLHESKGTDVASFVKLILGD
# UniProt Q15746, whole entry: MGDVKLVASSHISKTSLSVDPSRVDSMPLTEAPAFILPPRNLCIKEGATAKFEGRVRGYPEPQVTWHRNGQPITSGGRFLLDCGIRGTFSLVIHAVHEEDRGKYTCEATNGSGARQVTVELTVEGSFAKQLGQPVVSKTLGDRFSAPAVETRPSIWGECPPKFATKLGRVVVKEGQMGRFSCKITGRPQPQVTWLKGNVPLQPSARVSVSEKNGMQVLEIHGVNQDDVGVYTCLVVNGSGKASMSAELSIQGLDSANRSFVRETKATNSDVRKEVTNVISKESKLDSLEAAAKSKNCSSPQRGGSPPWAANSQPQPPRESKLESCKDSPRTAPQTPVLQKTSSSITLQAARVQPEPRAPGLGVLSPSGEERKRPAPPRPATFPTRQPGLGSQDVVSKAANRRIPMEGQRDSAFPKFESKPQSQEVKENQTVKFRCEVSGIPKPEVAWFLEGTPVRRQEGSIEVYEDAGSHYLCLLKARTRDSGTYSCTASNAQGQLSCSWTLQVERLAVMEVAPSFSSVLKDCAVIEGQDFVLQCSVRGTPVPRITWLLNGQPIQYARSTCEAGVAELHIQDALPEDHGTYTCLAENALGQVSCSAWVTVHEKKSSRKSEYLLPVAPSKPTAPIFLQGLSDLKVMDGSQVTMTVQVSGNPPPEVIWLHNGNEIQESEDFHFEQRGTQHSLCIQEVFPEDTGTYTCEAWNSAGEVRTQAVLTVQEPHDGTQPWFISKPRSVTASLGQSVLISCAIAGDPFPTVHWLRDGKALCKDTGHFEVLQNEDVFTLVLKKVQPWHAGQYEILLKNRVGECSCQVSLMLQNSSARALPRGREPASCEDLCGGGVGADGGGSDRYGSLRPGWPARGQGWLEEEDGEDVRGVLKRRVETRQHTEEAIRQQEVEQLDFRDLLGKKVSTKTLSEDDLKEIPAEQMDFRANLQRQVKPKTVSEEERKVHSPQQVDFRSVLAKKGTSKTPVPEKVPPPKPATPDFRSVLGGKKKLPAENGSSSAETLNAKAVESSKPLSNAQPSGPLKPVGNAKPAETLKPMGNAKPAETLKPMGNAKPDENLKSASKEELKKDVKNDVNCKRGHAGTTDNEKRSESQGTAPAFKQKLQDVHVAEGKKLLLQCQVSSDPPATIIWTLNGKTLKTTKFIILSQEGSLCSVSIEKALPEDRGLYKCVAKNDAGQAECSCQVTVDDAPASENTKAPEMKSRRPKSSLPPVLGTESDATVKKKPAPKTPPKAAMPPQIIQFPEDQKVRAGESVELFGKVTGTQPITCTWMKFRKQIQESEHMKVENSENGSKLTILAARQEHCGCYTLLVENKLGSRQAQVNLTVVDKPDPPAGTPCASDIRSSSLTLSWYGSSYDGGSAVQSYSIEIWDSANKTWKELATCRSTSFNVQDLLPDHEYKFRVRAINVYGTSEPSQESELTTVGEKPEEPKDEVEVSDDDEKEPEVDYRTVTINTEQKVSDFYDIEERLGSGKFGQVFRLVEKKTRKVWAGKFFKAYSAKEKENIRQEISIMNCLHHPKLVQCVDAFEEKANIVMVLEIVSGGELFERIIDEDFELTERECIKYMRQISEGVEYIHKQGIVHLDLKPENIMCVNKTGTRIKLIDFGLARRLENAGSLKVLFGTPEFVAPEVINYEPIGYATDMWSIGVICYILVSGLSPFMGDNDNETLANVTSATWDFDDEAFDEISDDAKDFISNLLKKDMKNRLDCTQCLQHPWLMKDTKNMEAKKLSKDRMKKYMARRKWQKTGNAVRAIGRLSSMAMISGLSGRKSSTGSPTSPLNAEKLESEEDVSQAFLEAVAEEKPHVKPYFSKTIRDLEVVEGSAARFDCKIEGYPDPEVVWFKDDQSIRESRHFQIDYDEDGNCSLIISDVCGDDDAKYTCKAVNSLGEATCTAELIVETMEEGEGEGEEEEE
# UniProt Q13043: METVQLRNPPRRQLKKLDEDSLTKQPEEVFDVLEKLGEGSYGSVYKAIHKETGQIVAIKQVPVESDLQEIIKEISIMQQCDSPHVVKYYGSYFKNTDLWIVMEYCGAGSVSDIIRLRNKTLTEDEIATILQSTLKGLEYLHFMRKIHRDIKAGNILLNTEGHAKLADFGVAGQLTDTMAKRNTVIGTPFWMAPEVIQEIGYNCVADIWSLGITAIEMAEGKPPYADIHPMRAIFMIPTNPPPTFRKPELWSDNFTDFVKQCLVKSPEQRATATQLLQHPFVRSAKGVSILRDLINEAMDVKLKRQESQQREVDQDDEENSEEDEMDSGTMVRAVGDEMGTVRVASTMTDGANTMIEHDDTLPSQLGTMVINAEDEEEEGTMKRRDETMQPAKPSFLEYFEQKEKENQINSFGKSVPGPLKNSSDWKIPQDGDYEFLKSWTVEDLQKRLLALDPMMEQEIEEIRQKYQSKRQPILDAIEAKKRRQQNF
# UniProt Q9Y6E0: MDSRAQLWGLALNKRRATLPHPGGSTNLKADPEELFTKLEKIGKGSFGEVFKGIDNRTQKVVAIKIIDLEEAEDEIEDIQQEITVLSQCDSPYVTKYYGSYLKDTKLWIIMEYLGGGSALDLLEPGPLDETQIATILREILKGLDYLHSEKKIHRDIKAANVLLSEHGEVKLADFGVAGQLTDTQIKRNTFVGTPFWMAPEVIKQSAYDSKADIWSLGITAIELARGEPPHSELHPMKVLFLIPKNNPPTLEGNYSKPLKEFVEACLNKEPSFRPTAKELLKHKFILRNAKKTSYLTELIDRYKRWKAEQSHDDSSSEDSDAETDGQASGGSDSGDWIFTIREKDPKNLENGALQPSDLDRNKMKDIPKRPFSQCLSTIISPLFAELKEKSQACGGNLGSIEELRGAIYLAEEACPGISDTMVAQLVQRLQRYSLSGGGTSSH
# For some assays here: This list holds what a sample rich in strong results left over. The entries are a selection whose mix differs from that of the whole data set.
# Columns and labels:
# [1] = target: Mitogen-activated protein kinase 10 (Homo sapiens) (UniProt P53779); details: at 1 µM
# [2] = target: Mitogen-activated protein kinase 10 (Homo sapiens) (UniProt P53779); details: at 10 µM
# [3] = target: Vascular endothelial growth factor receptor 2 (Homo sapiens) (UniProt P35968); details: at 1 µM
# [4] = target: Vascular endothelial growth factor receptor 2 (Homo sapiens) (UniProt P35968); details: at 10 µM
# [5] = target: LIM domain kinase 1 (Homo sapiens) (UniProt P53667); details: at 1 µM
# [6] = target: LIM domain kinase 1 (Homo sapiens) (UniProt P53667); details: at 10 µM
# [7] = target: Serine/threonine-protein kinase STK11 (Homo sapiens) (UniProt Q15831); details: at 1 µM
# [8] = target: Serine/threonine-protein kinase STK11 (Homo sapiens) (UniProt Q15831); details: at 10 µM
# [9] = target: Serine/threonine-protein kinase 10 (Homo sapiens) (UniProt O94804); details: at 1 µM
# [10] = target: Serine/threonine-protein kinase 10 (Homo sapiens) (UniProt O94804); details: at 10 µM
# [11] = target: Tyrosine-protein kinase Lck (Homo sapiens) (UniProt P06239); details: at 1 µM
# [12] = target: Tyrosine-protein kinase Lck (Homo sapiens) (UniProt P06239); details: at 10 µM
# [13] = target: Tyrosine-protein kinase Lck (Homo sapiens) (UniProt P06239); details: at 1 µM; remark: listed apart in the source
# [14] = target: Tyrosine-protein kinase Lck (Homo sapiens) (UniProt P06239); details: at 10 µM; remark: listed apart in the source
# [15] = target: Tyrosine-protein kinase Lyn (Homo sapiens) (UniProt P07948); details: at 1 µM
# [16] = target: Tyrosine-protein kinase Lyn (Homo sapiens) (UniProt P07948); details: at 10 µM
# [17] = target: Mitogen-activated protein kinase 3 (Homo sapiens) (UniProt P27361); details: at 1 µM
# [18] = target: Mitogen-activated protein kinase 3 (Homo sapiens) (UniProt P27361); details: at 10 µM
# [19] = target: Mitogen-activated protein kinase 1 (Homo sapiens) (UniProt P28482); details: at 1 µM
# [20] = target: Mitogen-activated protein kinase 1 (Homo sapiens) (UniProt P28482); details: at 10 µM
# [21] = target: MAP kinase-activated protein kinase 2 (Homo sapiens) (UniProt P49137); details: at 1 µM
# [22] = target: MAP kinase-activated protein kinase 2 (Homo sapiens) (UniProt P49137); details: at 10 µM
# [23] = target: MAP kinase-activated protein kinase 3 (Homo sapiens) (UniProt Q16644); details: at 1 µM
# [24] = target: MAP kinase-activated protein kinase 3 (Homo sapiens) (UniProt Q16644); details: at 10 µM
# [25] = target: Serine/threonine-protein kinase MARK1 (Homo sapiens) (UniProt Q9P0L2); details: at 1 µM
# [26] = target: Serine/threonine-protein kinase MARK1 (Homo sapiens) (UniProt Q9P0L2); details: at 10 µM
# [27] = target: Dual specificity mitogen-activated protein kinase kinase 1 (Homo sapiens) (UniProt Q02750); details: at 1 µM
# [28] = target: Dual specificity mitogen-activated protein kinase kinase 1 (Homo sapiens) (UniProt Q02750); details: at 10 µM
# [29] = target: Maternal embryonic leucine zipper kinase (Homo sapiens) (UniProt Q14680); details: at 1 µM
# [30] = target: Maternal embryonic leucine zipper kinase (Homo sapiens) (UniProt Q14680); details: at 10 µM
# [31] = target: Misshapen-like kinase 1 (Homo sapiens) (UniProt Q8N4C8); details: at 1 µM
# [32] = target: Misshapen-like kinase 1 (Homo sapiens) (UniProt Q8N4C8); details: at 10 µM
# [33] = target: Dual specificity mitogen-activated protein kinase kinase 6 (Homo sapiens) (UniProt P52564); details: at 1 µM
# [34] = target: Dual specificity mitogen-activated protein kinase kinase 6 (Homo sapiens) (UniProt P52564); details: at 10 µM
# [35] = target: Dual specificity mitogen-activated protein kinase kinase 7 (Homo sapiens) (UniProt O14733); details: at 1 µM
# [36] = target: Dual specificity mitogen-activated protein kinase kinase 7 (Homo sapiens) (UniProt O14733); details: at 10 µM
# [37] = target: Myosin light chain kinase, smooth muscle (Homo sapiens) (UniProt Q15746); details: at 1 µM
# [38] = target: Myosin light chain kinase, smooth muscle (Homo sapiens) (UniProt Q15746); details: at 10 µM
# [39] = target: Mitogen-activated protein kinase kinase kinase 9 (Homo sapiens) (UniProt P80192); details: at 1 µM
# [40] = target: Mitogen-activated protein kinase kinase kinase 9 (Homo sapiens) (UniProt P80192); details: at 10 µM
# [41] = target: Serine/threonine-protein kinase MRCK alpha (Homo sapiens) (UniProt Q5VT25); details: at 1 µM
# [42] = target: Serine/threonine-protein kinase MRCK alpha (Homo sapiens) (UniProt Q5VT25); details: at 10 µM
# [43] = target: Serine/threonine-protein kinase MRCK beta (Homo sapiens) (UniProt Q9Y5S2); details: at 1 µM
# [44] = target: Serine/threonine-protein kinase MRCK beta (Homo sapiens) (UniProt Q9Y5S2); details: at 10 µM
# [45] = target: Ribosomal protein S6 kinase alpha-5 (Homo sapiens) (UniProt O75582); details: at 1 µM
# [46] = target: Ribosomal protein S6 kinase alpha-5 (Homo sapiens) (UniProt O75582); details: at 10 µM
# [47] = target: Ribosomal protein S6 kinase alpha-4 (Homo sapiens) (UniProt O75676); details: at 1 µM
# [48] = target: Ribosomal protein S6 kinase alpha-4 (Homo sapiens) (UniProt O75676); details: at 10 µM
# [49] = target: SRSF protein kinase 3 (Homo sapiens) (UniProt Q9UPE1); details: at 1 µM
# [50] = target: SRSF protein kinase 3 (Homo sapiens) (UniProt Q9UPE1); details: at 10 µM
# [51] = target: Serine/threonine-protein kinase 4 (Homo sapiens) (UniProt Q13043); details: at 1 µM
# [52] = target: Serine/threonine-protein kinase 4 (Homo sapiens) (UniProt Q13043); details: at 10 µM
# [53] = target: Serine/threonine-protein kinase 3 (Homo sapiens) (UniProt Q13188); details: at 1 µM
# [54] = target: Serine/threonine-protein kinase 3 (Homo sapiens) (UniProt Q13188); details: at 10 µM
# [55] = target: Serine/threonine-protein kinase 24 (Homo sapiens) (UniProt Q9Y6E0); details: at 1 µM
# [56] = target: Serine/threonine-protein kinase 24 (Homo sapiens) (UniProt Q9Y6E0); details: at 10 µM
smiles,measurement,setting,value
O=C1Nc2ccc(-c3cccnc3)cc2/C1=C\c1ccc[nH]1,residual activity,[1],18%
same,residual activity,[2],-2%
same,residual activity,[3],5%
same,residual activity,[4],1%
same,residual activity,[5],83%
same,residual activity,[6],22%
same,residual activity,[7],90%
same,residual activity,[8],55%
same,residual activity,[9],8%
same,residual activity,[10],1%
same,residual activity,[11],38%
same,residual activity,[12],7%
same,residual activity,[13],33%
same,residual activity,[14],10%
same,residual activity,[15],10%
same,residual activity,[16],4%
same,residual activity,[17],25%
same,residual activity,[18],1%
same,residual activity,[19],65%
same,residual activity,[20],14%
same,residual activity,[21],83%
same,residual activity,[22],52%
same,residual activity,[23],116%
same,residual activity,[24],74%
same,residual activity,[25],1%
same,residual activity,[26],0%
same,residual activity,[27],9%
same,residual activity,[28],5%
same,residual activity,[29],4%
same,residual activity,[30],1%
same,residual activity,[31],6%
same,residual activity,[32],1%
same,residual activity,[33],22%
same,residual activity,[34],3%
same,residual activity,[35],70%
same,residual activity,[36],19%
same,residual activity,[37],23%
same,residual activity,[38],4%
same,residual activity,[39],6%
same,residual activity,[40],2%
same,residual activity,[41],95%
same,residual activity,[42],52%
same,residual activity,[43],66%
same,residual activity,[44],21%
same,residual activity,[45],60%
same,residual activity,[46],10%
same,residual activity,[47],23%
same,residual activity,[48],4%
same,residual activity,[49],91%
same,residual activity,[50],57%
same,residual activity,[51],2%
same,residual activity,[52],4%
same,residual activity,[53],5%
same,residual activity,[54],0%
same,residual activity,[55],12%
same,residual activity,[56],1%
